Consider one substance from PMC7439480, “Phosphorylation-Dependent Assembly of a 14-3-3 Mediated Signaling Complex during Red Blood Cell Invasion by Plasmodium falciparum Merozoites” (mBio, 2020).

The chains behind the UniProt entries cited, without tags or fusion partners.
UniProt Q8I719: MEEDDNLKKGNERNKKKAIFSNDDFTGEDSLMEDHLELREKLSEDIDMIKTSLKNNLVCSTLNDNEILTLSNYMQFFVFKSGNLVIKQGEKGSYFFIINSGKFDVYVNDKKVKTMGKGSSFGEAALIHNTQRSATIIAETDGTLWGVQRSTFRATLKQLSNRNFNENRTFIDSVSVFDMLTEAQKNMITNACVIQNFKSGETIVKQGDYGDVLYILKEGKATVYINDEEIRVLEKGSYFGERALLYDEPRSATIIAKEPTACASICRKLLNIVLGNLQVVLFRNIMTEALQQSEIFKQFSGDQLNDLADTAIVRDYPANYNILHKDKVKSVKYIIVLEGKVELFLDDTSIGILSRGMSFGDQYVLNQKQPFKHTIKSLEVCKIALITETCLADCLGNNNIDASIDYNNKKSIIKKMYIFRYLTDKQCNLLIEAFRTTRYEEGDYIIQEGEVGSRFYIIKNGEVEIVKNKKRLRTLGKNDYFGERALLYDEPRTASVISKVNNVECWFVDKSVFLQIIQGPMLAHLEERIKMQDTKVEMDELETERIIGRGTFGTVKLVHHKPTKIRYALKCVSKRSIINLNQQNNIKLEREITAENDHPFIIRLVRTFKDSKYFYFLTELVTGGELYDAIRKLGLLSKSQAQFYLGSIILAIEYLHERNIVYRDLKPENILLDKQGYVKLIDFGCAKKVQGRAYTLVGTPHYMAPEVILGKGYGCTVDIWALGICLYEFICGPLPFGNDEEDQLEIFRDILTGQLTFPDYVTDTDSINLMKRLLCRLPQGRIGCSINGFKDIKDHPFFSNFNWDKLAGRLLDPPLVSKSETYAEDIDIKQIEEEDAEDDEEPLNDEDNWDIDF

Results are given in words; binding and its absence hold for the method and conditions named. Binding seen in cells or lysates may run through a third protein.

In the assay the target is T1, Pf14-3-3I (P. falciparum 3D7 (endogenous in merozoites)) (UniProt C0H4V6).
T1 sequence: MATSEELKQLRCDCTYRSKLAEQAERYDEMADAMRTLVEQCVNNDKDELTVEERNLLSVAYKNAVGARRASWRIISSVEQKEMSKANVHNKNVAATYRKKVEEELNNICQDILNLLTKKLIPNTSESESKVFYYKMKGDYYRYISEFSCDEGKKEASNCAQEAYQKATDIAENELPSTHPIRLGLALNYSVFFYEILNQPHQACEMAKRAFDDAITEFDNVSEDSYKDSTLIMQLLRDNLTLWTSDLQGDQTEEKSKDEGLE
Kind of assay: co-IP; IP with anti-PfPKAr, anti-PfCDPK1 or anti-Pf14-3-3I sera (Pierce co-IP kit) from merozoite lysates, Western blot; merozoites in IC (high K+), EC (low K+) or EC-BA (EC + BAPTA-AM) buffer, or treated with 100 uM peptides P1, P2, P3 or 2 uM BV02 before lysis. Background: In western blotting, separated proteins are transferred to a membrane and probed.

For “P. falciparum protein kinase G (PfPKG) (from UniProt Q8I719 1-853) (enzyme)”, the binding result is listed as “no binding”.
